Test results taken from PMC8118307.
No constants are given. Whether binding was seen depends on the method and setting. Binding seen in cells or lysates may run through a third protein. Some entries that bind do so weakly or less than the wild type.

Amino acid sequences for entries named in this document (tags omitted).
UniProt P19525: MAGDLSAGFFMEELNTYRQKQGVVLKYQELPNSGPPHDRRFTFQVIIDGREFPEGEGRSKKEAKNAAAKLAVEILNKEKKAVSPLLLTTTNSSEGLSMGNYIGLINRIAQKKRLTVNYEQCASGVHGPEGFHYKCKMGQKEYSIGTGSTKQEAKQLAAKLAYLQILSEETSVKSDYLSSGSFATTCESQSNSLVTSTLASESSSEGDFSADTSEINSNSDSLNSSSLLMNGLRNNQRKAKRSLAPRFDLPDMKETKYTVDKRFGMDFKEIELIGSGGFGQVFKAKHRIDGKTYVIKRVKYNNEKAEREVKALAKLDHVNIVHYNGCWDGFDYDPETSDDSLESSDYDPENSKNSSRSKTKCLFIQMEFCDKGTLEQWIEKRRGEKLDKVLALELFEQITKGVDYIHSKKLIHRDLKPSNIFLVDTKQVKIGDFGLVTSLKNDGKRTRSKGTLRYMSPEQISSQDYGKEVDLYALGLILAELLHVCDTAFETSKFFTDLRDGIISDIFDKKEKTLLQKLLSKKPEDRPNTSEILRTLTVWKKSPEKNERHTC

T1: N-terVenus:DICER N1 (human) (UniProt Q9UPY3)
T1 sequence: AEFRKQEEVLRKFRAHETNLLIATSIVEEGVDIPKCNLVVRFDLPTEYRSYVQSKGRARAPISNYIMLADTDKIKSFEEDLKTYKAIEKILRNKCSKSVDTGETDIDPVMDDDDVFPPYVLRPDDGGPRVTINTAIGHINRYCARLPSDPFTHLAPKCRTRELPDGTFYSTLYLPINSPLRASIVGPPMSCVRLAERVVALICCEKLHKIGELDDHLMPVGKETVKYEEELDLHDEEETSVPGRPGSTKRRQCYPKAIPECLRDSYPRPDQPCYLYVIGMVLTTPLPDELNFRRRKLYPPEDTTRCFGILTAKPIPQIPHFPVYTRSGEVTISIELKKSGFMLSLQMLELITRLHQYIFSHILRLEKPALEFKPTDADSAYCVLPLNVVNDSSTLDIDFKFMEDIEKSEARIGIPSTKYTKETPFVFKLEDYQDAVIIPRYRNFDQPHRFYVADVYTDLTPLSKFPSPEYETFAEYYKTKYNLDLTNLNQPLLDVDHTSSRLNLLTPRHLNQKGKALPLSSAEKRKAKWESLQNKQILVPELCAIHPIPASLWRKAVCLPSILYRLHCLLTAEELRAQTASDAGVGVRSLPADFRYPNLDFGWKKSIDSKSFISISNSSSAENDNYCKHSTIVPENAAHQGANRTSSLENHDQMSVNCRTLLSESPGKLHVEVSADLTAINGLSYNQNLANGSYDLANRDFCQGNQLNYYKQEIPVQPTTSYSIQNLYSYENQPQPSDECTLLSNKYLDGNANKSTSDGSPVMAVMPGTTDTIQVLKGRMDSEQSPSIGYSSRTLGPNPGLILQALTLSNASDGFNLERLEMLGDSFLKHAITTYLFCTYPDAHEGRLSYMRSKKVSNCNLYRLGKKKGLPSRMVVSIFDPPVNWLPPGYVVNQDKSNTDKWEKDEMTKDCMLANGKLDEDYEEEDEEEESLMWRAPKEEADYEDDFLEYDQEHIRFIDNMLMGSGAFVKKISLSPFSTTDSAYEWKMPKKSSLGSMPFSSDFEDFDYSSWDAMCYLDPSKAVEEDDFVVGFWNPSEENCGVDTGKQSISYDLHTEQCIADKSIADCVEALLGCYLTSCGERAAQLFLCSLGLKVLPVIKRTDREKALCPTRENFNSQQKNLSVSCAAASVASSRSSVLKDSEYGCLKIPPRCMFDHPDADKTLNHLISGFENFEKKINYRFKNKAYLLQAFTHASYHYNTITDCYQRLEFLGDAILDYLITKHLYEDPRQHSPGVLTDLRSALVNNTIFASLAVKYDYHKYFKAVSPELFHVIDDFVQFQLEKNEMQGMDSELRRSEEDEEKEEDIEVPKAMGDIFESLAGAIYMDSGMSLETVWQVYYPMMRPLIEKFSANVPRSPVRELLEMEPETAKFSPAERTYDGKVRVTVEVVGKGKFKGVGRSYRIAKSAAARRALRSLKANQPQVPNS

B1: PACT:Venus C-ter (protein, UniProt O75569 1-313)
chain: MSQSRHRAEAPPLEREDSGTFSLGKMITAKPGKTPIQVLHEYGMKTKNIPVYECERSDVQIHVPTFTFRVTVGDITCTGEGTSKKLAKHRAAEAAINILKANASICFAVPDPLMPDPSKQPKNQLNPIGSLQELAIHHGWRLPEYTLSQEGGPAHKREYTTICRLESFMETGKGASKKQAKRNAAEKFLAKFSNISPENHISLTNVVGHSLGCTWHSLRNSPGEKINLLKRSLLSIPNTDYIQLLSEIAKEQGFNITYLDIDELSANGQYQCLAELSTSPITVCHGSGISCGNAQSDAAHNALQYLKIIAERK
B2: protein activator of interferon-induced protein kinase R (PACT), endogenous (protein, UniProt O75569 1-313)
chain: B1 chain

Experiments:
[1] = target: N-terVenus:DICER (wild type) (human) (UniProt Q9UPY3); test: split reporter; BiFC with Venus halves, plasmids co-transfected for 24 h in HEK293T cells (endogenous DICER and PKR present), then mock or SINV (MOI 2, 6 h); epifluorescence
[2] = target: T1, N-terVenus:DICER N1 (human); test: split reporter; BiFC with Venus halves, plasmids co-transfected for 24 h in NoDiceΔPKR HEK293T cells, then mock or SINV (MOI 2, 6 h); epifluorescence on living cells or confocal microscopy on fixed cells
[3] = target: FHA:DICER WT (transfected in NoDice 2.20 cells) (human) (UniProt Q9UPY3); test: co-IP; as a12, mock (not infected) NoDice 2.20 cells only

Molecule | binding [1] | binding [2] | binding [3]
PKR:Venus C-ter (from UniProt P19525 1-551) (enzyme) | binds | no binding | 
B1 | binds | no binding | 
B2 |  |  | binds weakly
